This note sets out measurements from US20240269113A1, “3-(2-(DIMETHYLAMINO)ETHYL)-1H-INDOL-4-yl DERIVATIVES” (priority 2023, published 2024).

The format of data set [1] is in vitro ADME. As for the experimental part:
The elimination rate constant and half-life (t1/2) were determined using Ln(MS response) vs time plots. […] The human plasma stability data are included in table A.

For `CC(C)CC(=O)n1cc(CCN(C)C)c2c(O)cccc21` [Compound 195, 1-(3-(2-(dimethylamino)ethyl)-4-hydroxy-1H-indol-1-yl)-3-methylbutan-1-one], the “Human Hepatocytes Maximum % Psilocin” value worked out at 25%. Also, the “Human Plasma Maximum % Psilocin” value in data set [1] is 2%.
